No constants are given. Whether binding was seen depends on the method and setting.
Biological target: NaV1.4 CTerm Short (residues 1599–1754), as co-purified with CaM for crystallization (human) (UniProt P35499)
Assay: crystal structure; NaV1.4 CTerm Short–CaM complex with 20 mM CaCl2, 20 mM MgCl2 and the DIII–DIV linker peptide at a 1:1 ratio with the complex (800 µM), hanging drop at 18 °C, MORPHEUS condition F8, pH 7.5; 3.30 Å; both purified

Question: With “NaV1.4 CTerm Short (residues 1599–1754), as co-purified with CaM for crystallization (from UniProt P35499 1599-1754) (domain or fragment)” as the substance, how does the binding read?
Answer: Its binding is “no binding”.
